Structures can show the parent of a compound that is named as a salt. This is one part of the list. Repeats in this data set agree poorly, so a single value says little.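 Human kidney-derived cells stably carry a construct in which eight TEAD-binding elements drive luciferase, measured by luminescence in a drug-repurposing library screen. A hit is any compound whose signal exceeds the plate mean by more than five robust Z scores.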
Tested on: HEK293A TEAD-LUC reporter
Experiment: TEAD-luciferase reporter activity (YAP activation), robust Z score vs plate; higher = stronger YAP/TEAD activation
Conditions: 24 h

Row | Structure (SMILES) | TEAD-luciferase reporter activity (compound concentration: 200 nM) | TEAD-luciferase reporter activity (compound concentration: 2 uM) | TEAD-luciferase reporter activity (compound concentration: 10 uM)
1 | Cc1ccncc1N1CCN(c2ccnc(Cl)c2)C1=O | inactive: 0.132 | inactive: -0.12 | inactive: 0.602
2 | Cc1cccc(O[C@@H]2CCNC[C@@H]2O)c1C | inactive: -1.64 | inactive: -0.587 | inactive: -0.796
3 | COc1ccc(-c2cc3nccn3c(Nc3ncccc3C(N)=O)n2)cc1OC [BAY 61-3606 dihydrochloride] | inactive: -0.185 | inactive: 4.09 | inactive: -2.64
4 | C[N+]1(CCCCC[N+]2(C)CCCC2)CCCC1 | inactive: 1.33 | inactive: 0.369 | inactive: 1.58
5 | Cc1ccccc1-n1ccnc1S(=O)CCCOc1ccc2c(c1)CCC(=O)N2 (configuration not stated) | inactive: -2.16 | inactive: -0.377 | inactive: 1.38
6 | COc1cccc2c1C(=O)c1c(O)c3c(c(O)c1C2=O)C[C@@](O)(C(=O)CO)C[C@@H]3O[C@@H]1C[C@@H](N)[C@H](O)[C@@H](C)O1 [Epirubicin HCl] | inactive: 1.53 | inactive: 1.06 | inactive: -1.42
7 | Fc1ccc(-c2cncc(CNCC3CCc4ccccc4O3)c2)cc1 (configuration not stated) | inactive: -0.241 | inactive: 1.57 | inactive: -0.828
8 | CCCCCCOc1ccccc1C(N)=O [exalamide] | inactive: -0.543 | inactive: -1.81 | inactive: -0.513
9 | C[C@@H]1CN(C(=O)c2ccc(NC(=O)c3cc(O[C@H](C)c4c(Cl)ccc(F)c4Cl)c(N)nn3)cc2)C[C@H](C)N1 [Ensartinib] | inactive: -1.84 | inactive: -1.97 | inactive: -1.1
10 | Cc1ncc2c(c1O)COC2(C)c1ccc(Cl)cc1 (configuration not stated) | inactive: 0.0805 | inactive: 0.682 | inactive: 1.45
11 | CC1(C)S[C@@H]2[C@H](NC(=O)[C@H](NC(=O)N3CCN(S(C)(=O)=O)C3=O)c3ccccc3)C(=O)N2[C@H]1C(=O)O [mezlocillin] | inactive: -0.451 | inactive: -1.04 | inactive: -0.614
12 | CN[C@@H]1[C@H](O[C@H]2[C@H](O[C@@H]3[C@@H](O)[C@H](O)[C@@H](NC(=N)N)[C@H](O)[C@H]3NC(=N)N)O[C@@H](C)[C@]2(O)CO)O[C@@H](CO)[C@H](O)[C@H]1O | inactive: 4.74 | inactive: -0.345 | inactive: 0.13
13 | N#Cc1cccc(COc2ccc(N3CC(CO)OC3=O)cc2)c1 (configuration not stated) | inactive: -0.693 | inactive: 0.112 | inactive: -0.713
14 | C=CCN1CCN(CC(C)(C)COC(=O)C2=C(C)NC(C)=C(C(=O)OC)C2c2cccc([N+](=O)[O-])c2)CC1 (configuration not stated) | inactive: -0.715 | inactive: -1.76 | inactive: -1.41
15 | NC(=O)c1csc([C@@H]2O[C@H](CO)C(O)C2O)n1 (some centres not stated) [tiazofurin] | inactive: -0.813 | inactive: -0.122 | inactive: -0.047
16 | O=C(CNC(=O)c1ccc(-c2cccc(C(F)(F)F)c2)cc1)NC1CCCC1 | inactive: 1.43 | – | inactive: 0.167
17 | CN[C@@H](C)C(=O)N[C@H](C(=O)N1CCC[C@H]1C(=O)Nc1snnc1-c1ccccc1)C1CCCCC1 | inactive: 2.1 | inactive: 1.18 | inactive: 0.798
18 | CCC1NC(=O)c2cc(S(N)(=O)=O)c(Cl)cc2N1 (configuration not stated) [Quinethazone] | inactive: -0.809 | inactive: -0.233 | inactive: 1.9
19 | CN1C(=O)CC(C)(c2ccccc2)C1=O (configuration not stated) [Methsuximide] | inactive: 1.17 | inactive: -0.0783 | inactive: 3.29
20 | NC(=O)c1nnn(Cc2cc(Cl)c(C(=O)c3ccc(Cl)cc3)c(Cl)c2)c1N [CAI orotate] | inactive: -0.762 | inactive: -0.632 | inactive: 0.674
21 | CN(CC1COCCO1)S(=O)(=O)Nc1ccc2ccc3ncc(-c4cnn(C)c4)cc3c(=O)c2c1 (configuration not stated) [c-Met inhibitor, Merck] | inactive: -0.236 | inactive: -1.48 | inactive: -1.64
22 | CC(NNC(=O)c1ccccc1)c1ccccc1 (configuration not stated) | inactive: -0.522 | inactive: 0.69 | inactive: 2.07
23 | CC(C)(C)c1cc(/C=C2\SC(=O)NC2=O)cc(C(C)(C)C)c1O | inactive: -2.04 | inactive: -0.271 | inactive: -0.642
24 | C[C@H](NC(=O)Cc1ccccc1)C(=O)Nc1ccc(C2S/C(=N\c3cccc(F)c3)N(Cc3cccs3)C2=O)cc1 (some centres not stated) | inactive: -1.54 | inactive: 1.27 | inactive: -0.401
25 | COc1cc(-c2ccc(=O)[nH]n2)ccc1OC(F)F [Zardaverine] | inactive: -0.427 | inactive: -1.48 | inactive: -0.284
26 | N=C(N)c1ccc(OCCCOc2ccc(C(=N)N)cc2Br)c(Br)c1 | inactive: 4.03 | inactive: -0.289 | inactive: -0.464

Given comma-delimited: part of the list above
Row,Structure (SMILES),TEAD-luciferase reporter activity (compound concentration: 200 nM),TEAD-luciferase reporter activity (compound concentration: 2 uM),TEAD-luciferase reporter activity (compound concentration: 10 uM)
13,N#Cc1cccc(COc2ccc(N3CC(CO)OC3=O)cc2)c1 (configuration not stated),inactive: -0.693,inactive: 0.112,inactive: -0.713
14,C=CCN1CCN(CC(C)(C)COC(=O)C2=C(C)NC(C)=C(C(=O)OC)C2c2cccc([N+](=O)[O-])c2)CC1 (configuration not stated),inactive: -0.715,inactive: -1.76,inactive: -1.41
17,CN[C@@H](C)C(=O)N[C@H](C(=O)N1CCC[C@H]1C(=O)Nc1snnc1-c1ccccc1)C1CCCCC1,inactive: 2.1,inactive: 1.18,inactive: 0.798
18,CCC1NC(=O)c2cc(S(N)(=O)=O)c(Cl)cc2N1 (configuration not stated) [Quinethazone],inactive: -0.809,inactive: -0.233,inactive: 1.9
24,C[C@H](NC(=O)Cc1ccccc1)C(=O)Nc1ccc(C2S/C(=N\c3cccc(F)c3)N(Cc3cccs3)C2=O)cc1 (some centres not stated),inactive: -1.54,inactive: 1.27,inactive: -0.401
